Source: patent publication US10865191B2, “Heterocyclic compounds useful as modulators of TNF alpha” (BRISTOL-MYERS SQUIBB COMPANY, priority 2015, dated 2020)
pIC50: −log10 of the molar value. Where two headings read alike, the source gives them in different places. Some entries share one result that the patent states for a list of compounds.

By UniProt entry, the sequences of proteins in these tests, tags left out. Residues count along the entry.
UniProt P01375, 77-233 limits assumed: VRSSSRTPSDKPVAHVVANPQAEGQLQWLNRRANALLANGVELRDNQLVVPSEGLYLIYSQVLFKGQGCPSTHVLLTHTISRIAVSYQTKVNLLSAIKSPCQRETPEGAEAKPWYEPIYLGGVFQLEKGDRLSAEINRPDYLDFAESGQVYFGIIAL

Molecular target: TNFα (Homo sapiens, UniProt P01375)
Test: TNF induced HEK-Blue assay (NF-kB-driven secreted alkaline phosphatase reporter)
Assay type: cell-based
In short: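 HEK-Blue-CD40L cells (NF-kB-driven SEAP reporter), 20,000/well, added after 30 min pre-incubation of compound (0.004–25 μM final) with TNFα 0.5 ng/mL final at 37 °C; 18 h incubation. SEAP read with QUANTI-Blue at 620 nm; IC50 from 4-parameter logistic fit, normalized to unstimulated and stimulated DMSO controls.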

[1] = TNFα 0.5 ng/mL, HEK-Blue-CD40L cells, 18 h; read-out: IC50 values measured in the TNF induced HEK-Blue assay

Structure (SMILES) | pIC50 [1] | pIC50 (read-out: IC50 values measured in the TNF induced HEK-Blue assay; TNFα 0.5 ng/mL, HEK-Blue-CD40L cells, 18 h)
C[C@@H](Nc1c(Cl)cnc2ccc(-c3cnc(C(C)(C)O)nc3)cc12)c1cc(C(=O)N(C)C)ccc1F [Example 417, (R)-3-(1-((3-chloro-6-(2-(2-hydroxypropan-2-yl)pyrimidin-5-yl)quinolin-4-yl)amino)ethyl)-4-fluoro-N,N-dimethylbenzamide] | ≥ 4.60 | 
C[C@@H](Nc1c(Cl)cnc2cc(F)c(-c3cnc(N4CCN(CC(=O)NCC(=O)O)CC4)nc3)cc12)c1ccccc1F [Example 304, (R)-(2-(4-(5-(3-chloro-7-fluoro-4-((1-(2-fluorophenyl)ethyl)amino)quinolin-6-yl)pyrimidin-2-yl)piperazin-1-yl)acetyl)glycine] | ≥ 4.60 | 
CC(Nc1c(Cl)cnc2cc(F)c(-c3ccc(C4(O)CCC(C(=O)O)CC4)cc3)cc12)c1ccccc1F (racemic) [Example 251, 4-(4-(3-chloro-7-fluoro-4-((1-(2-fluorophenyl)ethyl)amino)quinolin-6-yl)phenyl)-4-hydroxycyclohexane-1-carboxylic acid] | ≥ 4.60 | 
CC(C)(O)c1ncc(-c2ccc3ncc(Cl)c(NC(CF)c4ccccc4F)c3c2)cn1 (racemic) [Example 10, 2-(5-(3-chloro-4-((2-fluoro-1-(2-fluorophenyl)ethyl)amino)quinolin-6-yl)pyrimidin-2-yl)propan-2-ol] | ≥ 4.60 | 
CC(C)(O)c1ncc(-c2ccc3ncc(Cl)c(NC(CC(F)F)c4ccccc4F)c3c2)cn1 (racemic) [Example 168, 2-(5-(3-chloro-4-((3,3-difluoro-1-(2-fluorophenyl)propyl)amino)quinolin-6-yl)pyrimidin-2-yl)propan-2-ol] | ≥ 4.60 | 
CC(Nc1c(Cl)cnc2ccc(-c3ccc(C(C)(C)O)cc3)cc12)c1nccs1 (racemic) [Example 194, 2-(4-(3-chloro-4-((1-(thiazol-2-yl)ethyl)amino)quinolin-6-yl)phenyl)propan-2-ol] | ≥ 4.60 | 
Cc1ccc(C)c(Nc2c(Cl)c(C)nc3ccc(-c4ccc(CN5CCN(C(=O)OC(C)(C)C)CC5)cc4)cc23)c1 [Example 6, tert-butyl 4-(4-(3-chloro-4-((2,5-dimethylphenyl)amino)-2-methylquinolin-6-yl)benzyl)piperazine-1-carboxylate] | ≥ 4.60 | 
O=C1CN(c2ncc(-c3ccc4ncc(Cl)c(N[C@@H](c5ccccc5F)C(F)F)c4c3)cn2)CCN1 [Example 79, (S)-4-(5-(3-chloro-4-((2,2-difluoro-1-(2-fluorophenyl)ethyl)amino)quinolin-6-yl)pyrimidin-2-yl)piperazin-2-one] | ≥ 4.60 | 
Cc1nc2ccc(-c3cnc(C(C)(C)O)nc3)cc2c(N[C@@H](c2cc(C(C)(C)O)ccc2F)C(F)F)c1Cl [Example 418, (S)-2-(5-(3-chloro-4-((2,2-difluoro-1-(2-fluoro-5-(2-hydroxypropan-2-yl)phenyl)ethyl)amino)-2-methylquinolin-6-yl)pyrimidin-2-yl)propan-2-ol] | ≥ 4.60 | 
Cc1nc2ccc(-c3cnc(C(C)(C)O)nc3)cc2c(N[C@H](C)c2cccc(OCC(=O)O)c2)c1Cl [Example 438, (R)-2-(3-(1-((3-chloro-6-(2-(2-hydroxypropan-2-yl)pyrimidin-5-yl)-2-methylquinolin-4-yl)amino)ethyl)phenoxy)acetic acid] | ≥ 4.60 | 
C[C@@H](Nc1c(Cl)cnc2ccccc12)c1cc(-c2cnn(CC(C)(C)O)c2)ccc1F [Example 465, (R)-1-(4-(3-(1-((3-chloroquinolin-4-yl)amino)ethyl)-4-fluorophenyl)-1H-pyrazol-1-yl)-2-methylpropan-2-ol] | ≥ 4.60 | 
CC(Nc1c(Cl)cnc2cc(F)c(-c3cnc(C(O)CN4CCOCC4)cn3)cc12)c1ccccc1F (stereo not drawn) [Example 276, 1-(5-(3-chloro-7-fluoro-4-((1-(2-fluorophenyl)ethyl)amino)quinolin-6-yl)pyrazin-2-yl)-2-morpholinoethan-1-ol] | ≥ 4.60 | 
C[C@@H](Nc1c(Cl)cnc2ccc(-c3ccc(C(=O)NCCCCN)nc3)cc12)c1ccccc1F [Example 101, (R)—N-(4-aminobutyl)-5-(3-chloro-4-((1-(2-fluorophenyl)ethyl)amino)quinolin-6-yl)picolinamide] | ≥ 4.60 | 
C[C@@H](Nc1c(Cl)cnc2ccccc12)c1cc(-c2cncnc2)ccc1F [Example 479, (R)-3-chloro-N-(1-(2-fluoro-5-(pyrimidin-5-yl)phenyl)ethyl)quinolin-4-amine] | ≥ 4.60 | 
C[C@@H](Nc1c(Cl)cnc2ccc(-c3cnc(C(C)(C)O)nc3)cc12)c1cc(C2=CCN(C(=O)OC(C)(C)C)CC2)ccc1F [Example 337, tert-butyl (R)-4-(3-(1-((3-chloro-6-(2-(2-hydroxypropan-2-yl)pyrimidin-5-yl)quinolin-4-yl)amino)ethyl)-4-fluorophenyl)-3,6-dihydropyridine-1(2H)-carboxylate] | ≥ 4.60 | 
C[C@@H](Nc1c(Cl)cnc2ccc(-c3ccc(CO)cc3)cc12)c1ccccc1F [Example 220, (R)-(4-(3-chloro-4-((1-(2-fluorophenyl)ethyl)amino)quinolin-6-yl)phenyl)methanol] | ≥ 4.60 | 
C[C@@H](Nc1c(Cl)c(C(=O)Nc2cccnc2)nc2ccc(-c3cnc(C(C)(C)O)nc3)cc12)c1cc(C#N)ccc1F [Example 385, (R)-3-chloro-4-((1-(5-cyano-2-fluorophenyl)ethyl)amino)-6-(2-(2-hydroxypropan-2-yl)pyrimidin-5-yl)-N-(pyridin-3-yl)quinoline-2-carboxamide] | ≥ 4.60 | 

Structure (SMILES) | pIC50 [1] | pIC50 (read-out: IC50 values measured in the TNF induced HEK-Blue assay; TNFα 0.5 ng/mL, HEK-Blue-CD40L cells, 18 h)
Cc1nc2ccc(-c3cnc(C(C)(C)O)nc3)cc2c(N[C@H](C)c2cc(CO)ccc2F)c1Cl [Example 431, (R)-2-(5-(3-chloro-4-((1-(2-fluoro-5-(hydroxymethyl)phenyl)ethyl)amino)-2-methylquinolin-6-yl)pyrimidin-2-yl)propan-2-ol] | ≥ 4.60 | 
C[C@@H](Nc1c(Cl)cnc2ccc(-c3cnc(C(C)(C)O)nc3)cc12)c1cc(C(N)=O)ccc1F [Example 388, (R)-3-(1-((3-chloro-6-(2-(2-hydroxypropan-2-yl)pyrimidin-5-yl)quinolin-4-yl)amino)ethyl)-4-fluorobenzamide] | ≥ 4.60 | 
Cc1nc2c(F)cc(-c3ccc(C(C)(C)O)cc3)cc2c(N[C@@H](c2ccccc2F)C(F)F)c1Cl [Example 305, (S)-2-(4-(3-chloro-4-((2,2-difluoro-1-(2-fluorophenyl)ethyl)amino)-8-fluoro-2-methylquinolin-6-yl)phenyl)propan-2-ol] | ≥ 4.60 | 
CCC(Nc1c(Cl)cnc2ccc(-c3ccc(C(C)(C)O)cc3)cc12)c1nc(C(N)=O)ccc1F (racemic) [Example 24, 6-(1-((3-chloro-6-(4-(2-hydroxypropan-2-yl)phenyl)quinolin-4-yl)amino)propyl)-5-fluoropicolinamide] | ≥ 4.60 | 
C[C@@H](Nc1c(Cl)cnc2ccc(-c3ccc(C(N)CO)cc3)cc12)c1ccccc1F (stereo partly drawn) [Example 100, 2-amino-2-(4-(3-chloro-4-(((R)-1-(2-fluorophenyl)ethyl)amino)quinolin-6-yl)phenyl)ethan-1-ol] | ≥ 4.60 | 
CC(C)(O)c1ncc(-c2ccc3ncc(Cl)c(NC(CCO)c4ccccc4F)c3c2)cn1 (racemic) [Example 167, 3-((3-chloro-6-(2-(2-hydroxypropan-2-yl)pyrimidin-5-yl)quinolin-4-yl)amino)-3-(2-fluorophenyl)propan-1-ol] | ≥ 4.60 | 
COc1ccc(F)c(CNc2c(Cl)cnc3ccccc23)c1 [Example 517, 3-chloro-N-(2-fluoro-5-methoxybenzyl)quinolin-4-amine] | ≥ 4.60 | 
C[C@@H](Nc1c(Cl)cnc2ccccc12)c1cc(-c2cccc(C#N)c2)ccc1F [Example 539, (R)-3′-(1-((3-chloroquinolin-4-yl)amino)ethyl)-4′-fluoro-[1,1′-biphenyl]-3-carbonitrile] | ≥ 4.60 | 
CC(C)(O)c1ncc(-c2cc3c(N[C@@H](c4ccccc4F)C(F)F)c(Cl)cnc3cc2F)cn1 [Example 269, (S)-2-(5-(3-chloro-4-((2,2-difluoro-1-(2-fluorophenyl)ethyl)amino)-7-fluoroquinolin-6-yl)pyrimidin-2-yl)propan-2-ol] | ≥ 4.60 | 
CNc1ncc(-c2cc(Cl)c3ncc(Cl)c(NC(C)c4ccccc4F)c3c2)cn1 (racemic) [Example 19, 3,8-dichloro-N-(1-(2-fluorophenyl)ethyl)-6-(2-(methylamino)pyrimidin-5-yl)quinolin-4-amine] | ≥ 4.60 | 
CC(Nc1c(Cl)cnc2cc(F)c(-c3ccc(C(O)CO)cc3)cc12)c1ccccc1F (stereo not drawn) [Example 256, 1-(4-(3-chloro-7-fluoro-4-((1-(2-fluorophenyl)ethyl)amino)quinolin-6-yl)phenyl)ethane-1,2-diol] | ≥ 4.60 | 
CCN(Cc1c(Cl)cnc2ccc(-c3cnc(C(C)(C)O)nc3)cc12)c1ccccc1 [Example 66, 2-(5-(3-chloro-4-((ethyl(phenyl)amino)methyl)quinolin-6-yl)pyrimidin-2-yl)propan-2-ol] | ≥ 4.60 | 
CNc1ccncc1-c1ccc(F)c([C@@H](C)Nc2c(Cl)cnc3ccccc23)c1 [Example 523, (R)-3-chloro-N-(1-(2-fluoro-5-(4-(methylamino)pyridin-3-yl)phenyl)ethyl)quinolin-4-amine] | ≥ 4.60 | 
CC(Nc1c(Cl)cnc2cc(F)c(-c3cnc(N4CCN(C(=O)[C@H](N)CO)CC4)nc3)cc12)c1ccccc1F (single isomer, unassigned) [Example 606] | ≥ 4.60 | 
C[C@@H](Nc1c(Cl)cnc2ccc(-c3cnc(C(C)(C)O)nc3)cc12)c1cc(-c2cnn(CC(=O)O)c2)ccc1F [Example 346, (R)-2-(4-(3-(1-((3-chloro-6-(2-(2-hydroxypropan-2-yl)pyrimidin-5-yl)quinolin-4-yl)amino)ethyl)-4-fluorophenyl)-1H-pyrazol-1-yl)acetic acid] | ≥ 4.60 | 
CC(Nc1c(Cl)cnc2cc(F)c(-c3cnc(C(C)(C)O)nc3)cc12)c1ccccc1F (stereo not drawn) [Example 249, 2-(5-(3-chloro-7-fluoro-4-((1-(2-fluorophenyl)ethyl)amino)quinolin-6-yl)pyrimidin-2-yl)propan-2-ol] |  | ≥ 4.60
